# Measurements published in the supplement of paper PMC4604168 (melanoma cell lines).
# This is one part of the list. Single values are uncertain, as repeats are few or missing.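 The apoptosis fraction was the count of cleaved-PARP antibody-stained nuclei relative to all DNA-stained nuclei, imaged in 1,536-well plates. Screening doses were set so most cells survived, and baseline and induced cleaved-PARP levels vary greatly across cell lines.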
# How the values were obtained:
# Assay in all cases: cleaved PARP positive nuclei fraction relative to DMSO control; melanoma cells; higher = more apoptosis
# Conditions in all cases: library dose: low library concentration; 72 h
# CBRC034 = system: CBRC034 (line from a melanoma biopsy)
# COLO792 = system: COLO792
# COLO800 = system: COLO800
# COLO829 = system: COLO829
# G361 = system: G361
# IPC-298 = system: IPC-298
# IST-MEL1 = system: IST-MEL1
# LB2518-MEL = system: LB2518-MEL
# LOXIMVI = system: LOXIMVI
# MEL-HO = system: MEL-HO
Structure (SMILES),cleaved PARP positive nuclei fraction (CBRC034) [%],cleaved PARP positive nuclei fraction (COLO792) [%],cleaved PARP positive nuclei fraction (COLO800) [%],cleaved PARP positive nuclei fraction (COLO829) [%],cleaved PARP positive nuclei fraction (G361) [%],cleaved PARP positive nuclei fraction (IPC-298) [%],cleaved PARP positive nuclei fraction (IST-MEL1) [%],cleaved PARP positive nuclei fraction (LB2518-MEL) [%],cleaved PARP positive nuclei fraction (LOXIMVI) [%],cleaved PARP positive nuclei fraction (MEL-HO) [%]
"C[C@]12O[C@H](C[C@]1(O)CO)n1c3ccccc3c3c4c(c5c6ccccc6n2c5c31)CNC4=O [Lestaurtinib] + C=CCNC1=C2C[C@@H](C)C[C@H](OC)[C@H](O)[C@@H](C)/C=C(\C)[C@H](OC(N)=O)[C@@H](OC)/C=C\C=C(/C)C(=O)NC(=CC1=O)C2=O [Tanespimycin] (first compound 0.004 µM, partner dose 0.002 µM)",66.5,87.6,117,93.2,90.5,188,120,105,123,41.5
"Cn1cc(C2=C(c3cn(C4CCN(Cc5ccccn5)CC4)c4ccccc34)C(=O)NC2=O)c2ccccc21 [Enzastaurin] + C[C@]1(O)C[C@@H](c2nc(-c3ccc4ccc(-c5ccccc5)nc4c3)c3c(N)nccn32)C1 [OSI906] (first compound 0.8 µM, partner dose 0.4 µM)",64.2,94.2,100,70.2,181,134,130,107,103,89.4
"C[C@]12O[C@H](C[C@]1(O)CO)n1c3ccccc3c3c4c(c5c6ccccc6n2c5c31)CNC4=O [Lestaurtinib] + Nc1nc(F)nc2c1ncn2[C@@H]1O[C@H](CO)[C@@H](O)[C@@H]1O [fludarabine] (first compound 0.004 µM, partner dose 0.2 µM)",183,91.5,142,87.5,229,90.7,82.7,111,102,141
"CC(=O)O[C@@]12CO[C@@H]1C[C@H](O)[C@@]1(C)C(=O)[C@H](O)C3=C(C)[C@@H](OC(=O)[C@H](O)[C@@H](NC(=O)OC(C)(C)C)c4ccccc4)C[C@@](O)([C@@H](OC(=O)c4ccccc4)[C@H]21)C3(C)C [Docetaxel] + N.N.[Cl][Pt][Cl] [cisplatin] (first compound 0.0001 µM, partner dose 1.6 µM)",55.6,419,116,217,530,61.3,152,259,149,186
"Cn1sc(=O)n(Cc2ccccc2)c1=O + N.N.[Cl][Pt][Cl] [cisplatin] (first compound 0.4 µM, partner dose 1.6 µM)",59.2,61,90.4,91.6,67.4,63.2,128,106,114,58
